Measurements reported in PubChem BioAssay AID1259275 (Sanger Institute, 2017).

- Test: 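Kinase and colorectal cancer genes needed for cancer cell survival, with or without drugs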 (primary screen)
- System: COLO320HSR human colorectal cancer cells
- Reagents: siRNA pool against human genes
- Conditions: anchor drug added one day after transfection: BYL719 at 1 µM, cetuximab at 5 µg/ml or trametinib at 10 nM; DMSO as vehicle arm
- Measurement: 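Viability averaged over replicates as a fraction of the non-targeting pool, a robust z-score for knock-down alone, and synergy scores with BYL719 (1 µM), cetuximab (5 µg/ml) or trametinib (10 nM)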
- Reading the numbers: robust z-score, siRNA alone: higher = more viable cells; strongly negative means essential; viability, knock-down alone (DMSO): higher = more viable cells
- Units: viability, knock-down alone (DMSO) in fraction of control
- Hit rule: 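a gene is called essential when its robust z-score without drug falls below -3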
- Calls: active = essential (siRNA alone); inactive = no change (siRNA alone)
The deposit covers 794 reagents; shown is a part drawn at random. Over the whole deposit, 13 (1.6%) were called active. 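Calls mark knock-downs lethal by themselves, not drug synergy; drugs went in a day after transfection, with DMSO as vehicle.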 Unmarked entries are inactive. Viability is capped at 1. Not all columns of the deposit are shown. Not given: the amount of reagent, the time to read-out.

{"gene symbol": "NME5", "robust z-score, siRNA alone": 0.726, "viability, knock-down alone (DMSO)": 1}
{"gene symbol": "TGFBR2", "robust z-score, siRNA alone": 0.25, "viability, knock-down alone (DMSO)": 0.957}
{"gene symbol": "HIPK4", "robust z-score, siRNA alone": 0.726, "viability, knock-down alone (DMSO)": 1}
{"gene symbol": "MPP1", "robust z-score, siRNA alone": 0.726, "viability, knock-down alone (DMSO)": 1}
{"gene symbol": "POMK", "robust z-score, siRNA alone": 0.726, "viability, knock-down alone (DMSO)": 1}
{"gene symbol": "PAPSS1", "robust z-score, siRNA alone": 0.726, "viability, knock-down alone (DMSO)": 1}
{"gene symbol": "BRSK1", "robust z-score, siRNA alone": -0.355, "viability, knock-down alone (DMSO)": 0.902}
{"gene symbol": "IRAK2", "robust z-score, siRNA alone": -0.689, "viability, knock-down alone (DMSO)": 0.872}
{"gene symbol": "PI4K2B", "robust z-score, siRNA alone": -0.568, "viability, knock-down alone (DMSO)": 0.883}
{"gene symbol": "PRPS2", "robust z-score, siRNA alone": 0.726, "viability, knock-down alone (DMSO)": 1}
{"gene symbol": "CDK16", "robust z-score, siRNA alone": 0.726, "viability, knock-down alone (DMSO)": 1}
{"gene symbol": "NRK", "robust z-score, siRNA alone": 0.726, "viability, knock-down alone (DMSO)": 1}
{"gene symbol": "DAPK2", "robust z-score, siRNA alone": 0.593, "viability, knock-down alone (DMSO)": 0.988}
{"gene symbol": "APC", "robust z-score, siRNA alone": 0.322, "viability, knock-down alone (DMSO)": 0.964}
{"gene symbol": "PKN3", "robust z-score, siRNA alone": -1.75, "viability, knock-down alone (DMSO)": 0.776}
{"gene symbol": "KDR", "robust z-score, siRNA alone": 0.726, "viability, knock-down alone (DMSO)": 1}
{"gene symbol": "PDK2", "robust z-score, siRNA alone": -0.993, "viability, knock-down alone (DMSO)": 0.845}
{"gene symbol": "MAPK8", "robust z-score, siRNA alone": 0.726, "viability, knock-down alone (DMSO)": 1}
{"gene symbol": "TLK2", "robust z-score, siRNA alone": 0.726, "viability, knock-down alone (DMSO)": 1}
{"gene symbol": "DCK", "robust z-score, siRNA alone": -0.835, "viability, knock-down alone (DMSO)": 0.859}
{"gene symbol": "MAP3K15", "robust z-score, siRNA alone": 0.726, "viability, knock-down alone (DMSO)": 1}
{"gene symbol": "SRPK1", "robust z-score, siRNA alone": -1, "viability, knock-down alone (DMSO)": 0.844}
{"gene symbol": "CAMK1G", "robust z-score, siRNA alone": 0.726, "viability, knock-down alone (DMSO)": 1}
{"gene symbol": "HIPK3", "robust z-score, siRNA alone": 0.726, "viability, knock-down alone (DMSO)": 1}
{"gene symbol": "EPHA6", "robust z-score, siRNA alone": "-4.92 (active)", "viability, knock-down alone (DMSO)": 0.491}
{"gene symbol": "CRKL", "robust z-score, siRNA alone": 0.726, "viability, knock-down alone (DMSO)": 1}
{"gene symbol": "AKAP9", "robust z-score, siRNA alone": -1.1, "viability, knock-down alone (DMSO)": 0.835}
{"gene symbol": "PKN2", "robust z-score, siRNA alone": 0.467, "viability, knock-down alone (DMSO)": 0.977}

An excerpt from above, reduced to “viability, knock-down alone (DMSO)”.
DCK = 0.859
MAP3K15 = 1
